Data: patent US20220378803A1, “INJECTABLE COMPOSITIONS OF URSODEOXYCHOLIC ACID” (SHILPA MEDICARE LIMITED, priority 2019, published 2022)
For at least one compound, name, drawing or mass did not settle the structure.

Test: Ursodeoxycholic acid solubility in sulfobutylether-β-cyclodextrin (HPLC assay of 0.22 μm filtrate)
Type: physicochemical

C[C@H](CCC(=O)O)[C@H]1CC[C@H]2[C@@H]3[C@@H](O)C[C@@H]4C[C@H](O)CC[C@]4(C)[C@H]3CC[C@]12C [UDCA, ursodeoxycholic acid]
Assay by HPLC of UDCA after filtration (0.22 μm filter) (S.No 1: UDCA 25 mg/mL, SBECD 138 mg/mL, molar ratio UDCA:SBECD 1:1, in water): 89.2 | Assay by HPLC of UDCA after filtration (0.22 μm filter) (S.No 2: UDCA 25 mg/mL, SBECD 152 mg/mL, molar ratio UDCA:SBECD 1:1.1, in water): 97.5 | Assay by HPLC of UDCA after filtration (0.22 μm filter) (S.No 3: UDCA 25 mg/mL, SBECD 165 mg/mL, molar ratio UDCA:SBECD 1:1.2, in water): 97.8 | Assay by HPLC of UDCA after filtration (0.22 μm filter) (S.No 4: UDCA 25 mg/mL, SBECD 179 mg/mL, molar ratio UDCA:SBECD 1:1.3, in water): 100.3 | Assay by HPLC of UDCA after filtration (0.22 μm filter) (S.No 5: UDCA 25 mg/mL, SBECD 185 mg/mL, molar ratio UDCA:SBECD 1:1.34, in water): 100.2 | Assay by HPLC of UDCA after filtration (0.22 μm filter) (S.No 6: UDCA 25 mg/mL, SBECD 193 mg/mL, molar ratio UDCA:SBECD 1:1.4, in water): 101.1 | Assay by HPLC of UDCA after filtration (0.22 μm filter) (S.No 7: UDCA 25 mg/mL, SBECD 207 mg/mL, molar ratio UDCA:SBECD 1:1.5, in water): 99.3
